From PMC10499988 (Nature Communications, 2023) come the findings set out here.

Amino acid sequences for entries named in this document (tags omitted). Residues count along the entry.
UniProt P02768, residues 25-609: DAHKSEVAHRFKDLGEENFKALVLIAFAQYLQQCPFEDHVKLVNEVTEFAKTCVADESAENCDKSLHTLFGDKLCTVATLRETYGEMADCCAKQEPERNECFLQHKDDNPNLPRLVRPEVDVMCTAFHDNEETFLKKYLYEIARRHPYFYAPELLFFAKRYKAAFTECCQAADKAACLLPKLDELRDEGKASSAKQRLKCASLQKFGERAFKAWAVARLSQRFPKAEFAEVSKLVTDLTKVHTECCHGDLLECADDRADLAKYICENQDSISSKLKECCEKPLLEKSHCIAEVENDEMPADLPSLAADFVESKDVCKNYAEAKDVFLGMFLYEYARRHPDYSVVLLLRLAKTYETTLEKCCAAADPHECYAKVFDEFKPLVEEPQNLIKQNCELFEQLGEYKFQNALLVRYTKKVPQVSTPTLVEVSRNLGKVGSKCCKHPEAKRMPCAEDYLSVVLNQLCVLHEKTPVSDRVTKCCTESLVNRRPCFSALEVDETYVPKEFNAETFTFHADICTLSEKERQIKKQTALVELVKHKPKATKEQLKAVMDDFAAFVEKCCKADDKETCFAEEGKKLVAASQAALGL

The assay concerns the target Human Serum Albumin (HSA) (human) (UniProt P02768). Briefly: ITC; peptides against HSA, SA-21 as control; complex multi-site behaviour, no affinity derived; both purified. A general note: Isothermal titration calorimetry measures the heat released or taken up as one component is titrated into another.

These are yes or no findings as the source states them, for the method shown. Some binding calls cover weakened binding; strength is not graded here.

For the molecule RLIEDICLPRWGCLWEDD (N-terminal acetyl; C-terminal amide; macrocyclic peptide) [SA-21 (Ac-…-NH2)], the binding result was “binds”.
